Measurements published in patent US20190169249A1 (SHATTUCK LABS, published 2019).
Results are given in words; binding and its absence hold for the method and conditions named. Some results given as binding are weak or reduced against the parent protein; the word gives no strength.

Assays:
[1] = molecular target: murine CD40 overexpressed on CHO-K1 cells (CHOK1/CD40) (murine) (UniProt P27512); assay: flow cytometry on CHOK1/mCD40 cells against CHOK1 parental cells, hFc-PE detection
[2] = molecular target: T1, recombinant murine CSF1 protein (murine) (UniProt P07141); assay: ELISA, left panel BINDING TO CSF1: plate-bound CSF1, anti-Fc-HRP detection; x axis is dilution
T1 sequence (looked up): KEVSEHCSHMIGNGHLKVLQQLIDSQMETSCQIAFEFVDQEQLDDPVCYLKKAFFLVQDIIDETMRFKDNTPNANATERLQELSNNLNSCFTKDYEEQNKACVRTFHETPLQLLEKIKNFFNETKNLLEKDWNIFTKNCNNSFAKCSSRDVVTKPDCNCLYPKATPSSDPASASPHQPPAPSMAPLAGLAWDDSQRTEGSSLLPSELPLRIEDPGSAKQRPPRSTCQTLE

[3] = molecular target: T1, recombinant murine CSF1 protein (murine); assay: ELISA, plate-bound recombinant murine CSF1 (FIG. 7B)
[4] = molecular target: T2, recombinant mouse CD40 protein (mouse) (UniProt P27512); assay: ELISA, plate-bound recombinant mouse CD40 (FIG. 7B)
T2 sequence (looked up): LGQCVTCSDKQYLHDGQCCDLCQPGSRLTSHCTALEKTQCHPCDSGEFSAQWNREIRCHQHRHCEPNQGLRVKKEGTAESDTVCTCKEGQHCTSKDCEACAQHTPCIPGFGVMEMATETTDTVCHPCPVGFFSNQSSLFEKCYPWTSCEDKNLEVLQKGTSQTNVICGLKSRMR

[5] = molecular target: T2, recombinant mouse CD40 protein (mouse); assay: ELISA, right panel BINDING TO CD40: plate-bound CD40, anti-CD40L antibody and HRP antibody detection; x axis is dilution
[6] = molecular target: murine CD40 overexpressed on CHO-K1 cells (CHOK1/CD40) (murine) (UniProt P27512); assay: flow cytometry on CHOK1/CD40 cells

Measured: binding

B1: murine CSF1R-Fc-CD40L chimeric protein (Fc fusion)
chain (part 1 of 2): APVIEPSGPELVVEPGETVTLRCVSNGSVEWDGPISPYWTLDPESPGSTLTTRNATFKNTGTYRCTELEDPMAGSTTIHLYVKDPAHSWNLLAQEVTVVEGQEAVLPCLITDPALKDSVSLMREGGRQVLRKTVYFFSPWRGFIIRKAKVLDSNTYVCKTMVNGRESTSTGIWLKVNRVHPEPPQIKLEPSKLVRIRGEAAQIVCSATNAEVGFNVILKRGDTKLEIPLNSDFQDNYYKKVRALSLNAVDFQDAGIYSCVASNDVGTRTATMNFQVVESAYLNLTSEQSLLQEVSVGDSLILTVHADAYPSIQHYNWTYLGPFFEDQRKLEFITQRAIYRYTFKLFLNRVKASEAGQYFLMAQNKAGWNNLTFELTLRYPPEVSVTWMPVNGSDVLFCDVSGYPQPSVTWMECRGHTDRCDEAQALQVWNDTHPEVLSQKPFDKVIIQSQLPIGTLKHNMTYFCKTHNSVGNSSQYFRAVSLGQSKQLPDESLFTP
chain (part 2 of 2): HRRLDKVEEEVNLHEDFVFIKKLKRCNKGEGSLSLLNCEEMRRQFEDLVKDITLNKEEKKENSFEMQRGDEDPQIAAHVVSEANSNAASVLQWAKKGYYTMKSNLVMLENGKQLTVKREGLYYVYTQVTFCSNREPSSQRPFIVGLWLKPSSGSERILLKAANTHSSSQLCEQQSVHLGGVFELQAGASVFVNVTEASQVIHRVGFSSFGLLKL
notes: 'constructed as described above in the Detailed Description and in U.S. 62/464,002'; also called mCSF1R-Fc-CD40L; mCD115-Fc-CD40L; not shown: Fc linker
binds: all assays above
